PubChem BioAssay AID1347426 (Functional Genomics Laboratory (NCATS/FGL), 2020)
Among all 31,000 sequences or so, about 1,400 (4.5%) were called active.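 The calls were made as follows: active = median seed-adjusted z-score above 1 or below -1; inactive = the rest.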 The list shows a part of the results.

Experiment: Novel Modifiers of Survival Motor Neuron (SMN) Protein: Gene Identification via Genome-wide siRNA Screen;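 also: luminescence tracks full-length SMN protein made from the SMN2 reporter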
Details: HEK293T SMN2-luciferase reporter, siRNA knockdown, 72 h; actives lie on both sides
Procedure, shortened: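 HEK293T cells stably carrying an SMN2 promoter/splicing cassette–luciferase reporter were reverse-transfected with 1 pmol siRNA per well (druggable-genome library, 3 siRNAs per gene) and grown 72 h at 37 °C. Luminescence, normalized to negative-control siRNA and log10-transformed, was scored as MAD.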

| Sequence | median seed-adjusted z-score |
| --- | --- |
| GACUAGUUUUGAUCAGGAATT against ZBTB5 | inactive: 0.314 |
| CCUCGAGUACAACAAUGAATT against RKHD4 | inactive: 0.0683 |
| GGUUCAGAUUCACACCUAUTT against FKBP9 | inactive: 0.359 |
| CGUGUCAAGUUUACACUGATT against MFSD2 | inactive: -0.325 |
| GGAAUUUUACCAAUCCGUUTT against PCDHA13 | inactive: -0.624 |
| CCCUACCUAUGGUCAACAATT against LPP | inactive: -0.103 |
| CUUCACUGGUUUUACUAAATT against ABCB6 | inactive: -0.359 |
| CGUUCGUGAUGGACUACUATT against GPR109B | inactive: 0.321 |
| CCACUAUAUUUCACGUUCATT against FUT2 | inactive: -0.878 |
| AGACCGACCUGGGCAUGAATT against SARM1 | inactive: 0.343 |
| CGUACUUGGUAGACAUGCATT against FZD2 | inactive: -0.0134 |
| GCUCCUCAGUGGUUGGAAATT against WDFY1 | inactive: 0.979 |
| GCACACUGUUCGAAGCUGATT against ALOX15 | inactive: 0.0369 |
| AGGAGUAUGUUCUACUAAATT against ESRRA | inactive: -0.833 |
| GAGUUAUCCUUAAUGGAUUTT against SIX4 | inactive: 0.0462 |
| CAAAAACUUUCAAUGCAAUTT against ZNF695 | inactive: -0.358 |
| GGCAUGUAUCUAUUAGUUATT against GAB1 | inactive: 0.373 |
| CCAUCAACCUUCACUCACATT against PKNOX2 | inactive: 0.0976 |
| ACAGUAGAGUCACCACCUATT against AFAR3 | inactive: 0.0433 |
| GGUACUACGUGUCUAAGAATT against PCAF | inactive: -0.00665 |
| CACUUUCCUUAAUCCGGUUTT against BTBD1 | inactive: 0.0192 |
| GCAUCGACCAAAACUUAUUTT against ATXN3 | inactive: 0.04 |
| GGAGUUUGAGGUAUACCUATT against IL6 | inactive: -0.436 |
| GGAUUAAUGCUAAAUUUGUTT against HECTD2 | inactive: 0.405 |
| GCUGUAAACAGUCAUCAGATT against ZNF180 | inactive: 0 |
| GCAAGGUCCUCAGUCAAAATT against ZNF818 | inactive: -0.223 |
| UGAUGAUGCAUACAGUGUATT against SCGB2A1 | inactive: 0 |
| CUAUCGUCAAUGUAUGGUATT against EIF3I | inactive: -0.0445 |
| GCUUUCUACAAGUAUAAGATT against ERO1LB | inactive: 0.565 |
| GCCUCACUCUCAACGUGCATT against PVRL1 | inactive: -0.362 |

Fetched one by one from the list above, 2 records:

| Sequence | median seed-adjusted z-score |
| --- | --- |
| AGACCGACCUGGGCAUGAATT against SARM1 | inactive: 0.343 |
| CGUGUCAAGUUUACACUGATT against MFSD2 | inactive: -0.325 |
